The text below walks through data of the supplement of paper PMC4604168 (melanoma cell lines).

Each structure is given as a SMILES string. The list shows a part of the results. Repeats are few or missing, and single values can be far off.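 Imaging used 1,536-well plates; nuclei positive for cleaved PARP by antibody were divided by total DNA-stained nuclei to yield the apoptosis fraction. Doses for screening kept most cells viable, and cell lines differ markedly in resting and induced cleaved-PARP levels.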

For the experiment, the system named is WM1716. Nature of the experiment: cleaved PARP positive nuclei fraction relative to DMSO control; melanoma cells; higher = more apoptosis. The conditions noted are these: library dose: low library concentration; 72 h.
Turning to `Cc1cc(Nc2cc(N3CCN(C)CC3)nc(Sc3ccc(NC(=O)C4CC4)cc3)n2)n[nH]1` [Tozasertib] + Nc1nc(F)nc2c1ncn2[C@@H]1O[C@H](CO)[C@@H](O)[C@@H]1O [fludarabine] (first compound 0.006 µM, partner dose 0.2 µM), the “cleaved PARP positive nuclei fraction” value stood at 118%.

With `O=C(/C=C/c1cccnc1)NCCCCC1CCN(C(=O)c2ccccc2)CC1` + CCCS(=O)(=O)Nc1ccc(F)c(C(=O)c2c[nH]c3ncc(Cl)cc23)c1F [PLX4720] (first compound 0.01 µM, partner dose 0.08 µM), the “cleaved PARP positive nuclei fraction” value amounted to 33%.

As to `O=C(/C=C/c1cccnc1)NCCCCC1CCN(C(=O)c2ccccc2)CC1` + CC(=O)c1c(C)c2cnc(Nc3ccc(N4CCNCC4)cn3)nc2n(C2CCCC2)c1=O [palbociclib] (first compound 0.01 µM, partner dose 0.04 µM), the “cleaved PARP positive nuclei fraction” value came out at 55.4%. As for `CCCCCCCCCCCCCCCCCCOP(=O)([O-])OC1CC[N+](C)(C)CC1` [Perifosine] + CCCCCCCCc1ccc(CCC(N)(CO)CO)cc1 [fingolimod] (first compound 0.4 µM, partner dose 2 µM), the “cleaved PARP positive nuclei fraction” value stood at 108%.

As to `CC[C@]1(O)C[C@H]2CN(CCc3c([nH]c4ccccc34)[C@@](C(=O)OC)(c3cc4c(cc3OC)N(C=O)[C@H]3[C@@](O)(C(=O)OC)[C@H](OC(C)=O)[C@]5(CC)C=CCN6CC[C@]43[C@@H]65)C2)C1` [vincristine] + Nc1ncn([C@H]2C[C@H](O)[C@@H](CO)O2)c(=O)n1 [decitabine] (first compound 0.0001 µM, partner dose 0.1 µM), the “cleaved PARP positive nuclei fraction” value was 207%.

Turning to `O=c1[nH]nc(Sc2ncc([N+](=O)[O-])s2)n1-c1ccc2c(c1)OCCO2` + CC1(C)CCC(c2ccc(Cl)cc2)=C(CN2CCN(c3ccc(C(=O)NS(=O)(=O)c4ccc(N[C@H](CCN5CCOCC5)CSc5ccccc5)c(S(=O)(=O)C(F)(F)F)c4)cc3)CC2)C1 [ABT263] (first compound 0.2 µM, partner dose 0.4 µM), the “cleaved PARP positive nuclei fraction” value stood at 47.6%. Consider `O=c1[nH]nc(Sc2ncc([N+](=O)[O-])s2)n1-c1ccc2c(c1)OCCO2` + C=C(c1ccc(C(=O)O)cc1)c1cc2c(cc1C)C(C)(C)CCC2(C)C [Bexarotene] (first compound 0.2 µM, partner dose 2 µM), for which the “cleaved PARP positive nuclei fraction” value is 311%.

In the case of `CC[C@]1(O)C[C@H]2CN(CCc3c([nH]c4ccccc34)[C@@](C(=O)OC)(c3cc4c(cc3OC)N(C=O)[C@H]3[C@@](O)(C(=O)OC)[C@H](OC(C)=O)[C@]5(CC)C=CCN6CC[C@]43[C@@H]65)C2)C1` [vincristine] + COc1ccc(C2=N[C@@H](c3ccc(Cl)cc3)[C@@H](c3ccc(Cl)cc3)N2C(=O)N2CCNC(=O)C2)c(OC(C)C)c1 [Nutlin-3] (first compound 0.0001 µM, partner dose 0.1 µM), the “cleaved PARP positive nuclei fraction” value was determined as 181%. Consider `COc1cc([C@@H]2c3cc4c(cc3[C@@H](O[C@@H]3O[C@@H]5CO[C@@H](C)O[C@H]5[C@H](O)[C@H]3O)[C@H]3COC(=O)[C@H]23)OCO4)cc(OC)c1O` [etoposide] + C[C@@H](Oc1cc(-c2cnn(C3CCNCC3)c2)cnc1N)c1c(Cl)ccc(F)c1Cl [Crizotinib] (first compound 0.02 µM, partner dose 0.2 µM), for which the “cleaved PARP positive nuclei fraction” value was determined as 34.7%. For `CC[C@]1(O)C[C@H]2CN(CCc3c([nH]c4ccccc34)[C@@](C(=O)OC)(c3cc4c(cc3OC)N(C=O)[C@H]3[C@@](O)(C(=O)OC)[C@H](OC(C)=O)[C@]5(CC)C=CCN6CC[C@]43[C@@H]65)C2)C1` [vincristine] + OCc1c[nH]c2ccccc12 [Indole-3-carbinol] (first compound 0.0001 µM, partner dose 0.8 µM), the “cleaved PARP positive nuclei fraction” value worked out at 116%. `O=c1[nH]nc(Sc2ncc([N+](=O)[O-])s2)n1-c1ccc2c(c1)OCCO2` + Cn1cnc2c(F)c(Nc3ccc(Br)cc3Cl)c(C(=O)NOCCO)cc21 [selumetinib] (first compound 0.2 µM, partner dose 0.015 µM): the “cleaved PARP positive nuclei fraction” value was 74.8%. Consider `CC[C@]1(O)C[C@H]2CN(CCc3c([nH]c4ccccc34)[C@@](C(=O)OC)(c3cc4c(cc3OC)N(C=O)[C@H]3[C@@](O)(C(=O)OC)[C@H](OC(C)=O)[C@]5(CC)C=CCN6CC[C@]43[C@@H]65)C2)C1` [vincristine] + CS(=O)(=O)c1ccc(C(=O)Nc2ccc(Cl)c(-c3ccccn3)c2)c(Cl)c1 [vismodegib] (first compound 0.0001 µM, partner dose 1 µM), for which the “cleaved PARP positive nuclei fraction” value was 377%. The same measure for `O=c1[nH]nc(Sc2ncc([N+](=O)[O-])s2)n1-c1ccc2c(c1)OCCO2` + Nc1ccn([C@@H]2O[C@H](CO)[C@@H](O)C2(F)F)c(=O)n1 [gemcitabine] (first compound 0.2 µM, partner dose 0.0004 µM): 107%.

For `CCCCCCCCCCCCCCCCCCOP(=O)([O-])OC1CC[N+](C)(C)CC1` [Perifosine] + Cc1cc(Nc2cc(N3CCN(C)CC3)nc(/C=C/c3ccccc3)n2)n[nH]1 [ENMD2076] (first compound 0.4 µM, partner dose 0.04 µM), the “cleaved PARP positive nuclei fraction” value was 139%.

For the compound `O=C(Nc1cc(C(F)(F)F)cc(C(F)(F)F)c1)c1cc(Cl)ccc1O` + Cn1cnc2c(F)c(Nc3ccc(Br)cc3Cl)c(C(=O)NOCCO)cc21 [selumetinib] (first compound 0.016 µM, partner dose 0.015 µM), the “cleaved PARP positive nuclei fraction” value came to 85.2%. On to `Cc1ccc(Nc2nccc(N(C)c3ccc4c(C)n(C)nc4c3)n2)cc1S(N)(=O)=O` [Pazopanib] + CC(=O)c1c(C)c2cnc(Nc3ccc(N4CCNCC4)cn3)nc2n(C2CCCC2)c1=O [palbociclib] (first compound 0.4 µM, partner dose 0.04 µM), for which the “cleaved PARP positive nuclei fraction” value was 49.1%. Take `CC[C@]1(O)C[C@H]2CN(CCc3c([nH]c4ccccc34)[C@@](C(=O)OC)(c3cc4c(cc3OC)N(C=O)[C@H]3[C@@](O)(C(=O)OC)[C@H](OC(C)=O)[C@]5(CC)C=CCN6CC[C@]43[C@@H]65)C2)C1` [vincristine] + C#Cc1cccc(Nc2ncnc3cc(OCCOC)c(OCCOC)cc23)c1 [erlotinib] (first compound 0.0001 µM, partner dose 0.8 µM): the “cleaved PARP positive nuclei fraction” value was found to be 433%. `N#CC[C@H](C1CCCC1)n1cc(-c2ncnc3[nH]ccc23)cn1` [ruxolitinib] + O=C(O)[C@@H]1[O][Sb](=[O])([O][Sb]2(=[O])[O][C@H]([C@H](O)CO)[C@H](O)[C@H](C(=O)O)[O]2)[O][C@H]([C@H](O)CO)[C@@H]1O [stibogluconate] (first compound 1 µM, partner dose 2 µM): the “cleaved PARP positive nuclei fraction” value turned out to be 74.7%.

In the case of `Cc1cn(-c2cc(NC(=O)c3ccc(C)c(Nc4nccc(-c5cccnc5)n4)c3)cc(C(F)(F)F)c2)cn1` [nilotinib] + CC(=O)O[C@@]12CO[C@@H]1C[C@H](O)[C@@]1(C)C(=O)[C@H](O)C3=C(C)[C@@H](OC(=O)[C@H](O)[C@@H](NC(=O)OC(C)(C)C)c4ccccc4)C[C@@](O)([C@@H](OC(=O)c4ccccc4)[C@H]21)C3(C)C [Docetaxel] (first compound 0.2 µM, partner dose 0.0001 µM), the “cleaved PARP positive nuclei fraction” value was found to be 338%. In the case of `COc1cc([C@@H]2c3cc4c(cc3[C@@H](O[C@@H]3O[C@@H]5CO[C@@H](C)O[C@H]5[C@H](O)[C@H]3O)[C@H]3COC(=O)[C@H]23)OCO4)cc(OC)c1O` [etoposide] + Cc1nc(Nc2ncc(C(=O)Nc3c(C)cccc3Cl)s2)cc(N2CCN(CCO)CC2)n1 [dasatanib] (first compound 0.02 µM, partner dose 0.004 µM), the “cleaved PARP positive nuclei fraction” value is 177%. As for `CC[C@]1(O)C[C@H]2CN(CCc3c([nH]c4ccccc34)[C@@](C(=O)OC)(c3cc4c(cc3OC)N(C=O)[C@H]3[C@@](O)(C(=O)OC)[C@H](OC(C)=O)[C@]5(CC)C=CCN6CC[C@]43[C@@H]65)C2)C1` [vincristine] + Cc1ccc(Nc2nccc(N(C)c3ccc4c(C)n(C)nc4c3)n2)cc1S(N)(=O)=O [Pazopanib] (first compound 0.0001 µM, partner dose 0.4 µM), the figure is 474%; as for `O=C(/C=C/c1cccnc1)NCCCCC1CCN(C(=O)c2ccccc2)CC1` + Cn1c(=O)n(-c2ccc(C(C)(C)C#N)cc2)c2c3cc(-c4cnc5ccccc5c4)ccc3ncc21 [NVP-BEZ235] (first compound 0.01 µM, partner dose 0.004 µM), 21.3%. The same measure for `O=C(/C=C/c1cccnc1)NCCCCC1CCN(C(=O)c2ccccc2)CC1` + Cc1cn(-c2cc(NC(=O)c3ccc(C)c(Nc4nccc(-c5cccnc5)n4)c3)cc(C(F)(F)F)c2)cn1 [nilotinib] (first compound 0.01 µM, partner dose 0.2 µM): 49.2%; for `O=C(/C=C/c1cccnc1)NCCCCC1CCN(C(=O)c2ccccc2)CC1` + COCC[n+]1c2c(n(Cc3cnccn3)c1C)C(=O)c1ccccc1C2=O [YM155] (first compound 0.01 µM, partner dose 0.0004 µM): 105%; for `COc1cc([C@@H]2c3cc4c(cc3[C@@H](O[C@@H]3O[C@@H]5CO[C@@H](C)O[C@H]5[C@H](O)[C@H]3O)[C@H]3COC(=O)[C@H]23)OCO4)cc(OC)c1O` [etoposide] + O=c1[nH]nc(Sc2ncc([N+](=O)[O-])s2)n1-c1ccc2c(c1)OCCO2 [BI78D3] (first compound 0.02 µM, partner dose 0.2 µM): 99.5%.
